Laboratory results as given in patent US8951340B2, “Water-insoluble coloring matter compound, ink using the water-insoluble coloring matter compound, thermal transfer recording sheet and resist composition for color filter” (Canon Kabushiki Kaisha, priority 2011, dated 2015).
Some entries repeat one wording, which the source may state once for all of them.

Experiments:
[1] = Gamut, color tone and chroma of color filter made from resist composition; settings: for C* using bar No. 10 / Evaluation of chroma using bar No. 10: coloring agent 6.5 mg per 25 cm^2
Method: 120 parts of cyclohexanone was mixed with 12 parts of the water-insoluble coloring matter compound according to the present invention (1). The water-insoluble coloring matter compound was dispersed by an Attritor (made by Mitsui Mining Co., Ltd.) for 1 hour. Thus, an ink according to the present invention (11) was obtained.
22 parts of the above ink (11) was slowly added to a solution of 96 parts of cyciohexanone including 6.7 parts of an acrylic copolymerized composition containing n-butylmethacrylate, acrylic acid, and hydroxyethylmethacrylate in a mass monomer ratio of 40%:30%:30% (weight-average molecular weight of 10,000), respectively, 1.3 parts of dipentaerythritol pentaacrylate, and 0.4 parts of 2-benzyl-2-dimethylamino-1-(4-morpholinophenyl)-butanone(photopolymerization initiator), and the solution was stirred at room temperature for 3 hours. The solution was filtered with a 1.5 μm filter to obtain a magenta resist composition for a color filter (1) according to the present invention.
The above magenta resist composition for a color filter (1) was spin, coated onto a glass substrate, and dried at 90° C. for 3 minutes. The whole surface of the coating was exposed to light, and post-cured at 180° C. to produce a color filter (1).
The color filter (1) and the comparative color filter (1) above were placed on a contrast ratio measurement sheet, respectively, and the chromaticity (L*, a*, b*) in the L*a*b* color system was measured by a reflection densitometer SpectroLino (made by Gretag Macbeth GmbH). The chroma (C*) was calculated based on the measured value of color properties by the above equation.
(§1) It can be said that as the chromaticity is higher in the magenta gamut direction in the same L*, the chromaticity is closer to the magenta chromaticity represented by the Adobe RGB color space. The color tone was evaluated using the values of a* and b* at L*=50. A sample at L*=50 was formed by controlling the temperature when an image was formed using the SELPHY CP710.
(§2) A: a* is not less than 80, and b* is not more than −15 (much closer to the magenta chromaticity)
(§3) B: a* is not less than 60 and is less than 80, and b* is not more than −15 (closer to the magenta chromaticity)
(§4) C: a* is less than 60, and b* is not more than −15 (far from the magenta chromaticity)
(§5) It can be said that as C* in the same amount of coloring agent per unit area is higher, the lightness and the chroma are higher. The chroma was evaluated using the value of C* wherein the amount of the coloring agent per 25 cm^2 (5 cm×5 cm) of the color filter and the transfer image was 6.5 mg.
(§6) A: C* is not less than 80 (lightness and chroma are very high)
(§7) B: C* is not less than 70 and is less than 30 (lightness and chroma are high)
(§8) C: C* is less than 70 (lightness and chroma are low)

[2] = Color tone and chroma of transfer image from thermal transfer recording sheet; settings: for C* using bar No. 10 / Evaluation of chroma using bar No. 10: coloring agent 6.5 mg per 25 cm^2
Description: While a mixed solution of 13.5 parts of the water-insoluble compound according to the present, invention (4) and 45 parts of methyl ethyl ketone/45 parts of toluene was stirred, 5 parts of a polyvinyl butyral resin (DENKA 3000-K; made by DENKI KAGAKU KOGYO KABUSHIKI KAISHA) was gradually added to the mixed solution to obtain an ink according to the present invention (12).
The above ink (12) was applied onto a polyethylene terephthalate film having a thickness of 4.5 μm (Lumirror; made by Toray Industries, Inc.; such that the thickness after drying was 1 μm, and dried to produce a thermal transfer recording sheet (1).
The thermal transfer recording sheet (1) and the comparative thermal transfer recording sheet (1) above were cut and attached, to a magenta part in an ink cassette for SELPHY CP710 (made by Canon Inc.), respectively, and an image was formed on a dedicated printing paper using a SELPHY CP710 (made by Canon Inc.). The formed images were solid, images of only a magenta color. The respective formed images were a transfer image (1) and a comparative transfer image (1), respectively. In each of the transfer images, the chromaticity (L*, a*, b*) in the L*a*b* color system was measured using a reflection densitometer SpectroLino (made by Gretag Macbeth GmbH). The chroma (C*) was calculated based on the measured value of color properties by the above equation.
as §1, §2, §3, §4, §5, §6, §7, §8

SMILES | Evaluation of color tone at L* = 50 [1] | a* at L* = 50 [1] | b* at L* = 50 [1] | C* using bar No. 10 [1] | Evaluation of chroma using bar No. 10 [1] | Evaluation of color tone at L* = 50 [2] | a* at L* = 50 [2] | b* at L* = 50 [2] | C* using bar No. 10 [2] | Evaluation of chroma using bar No. 10 [2]
CCCCC(CC)CNc1ccc2c3c1C(=O)c1ccccc1-c3c(C(C)=O)c(=O)n2CCCC (centres unmarked) [Compound (1)] | A (a* is not less than 80, and b* is not more than −15 (much closer to the magenta chromaticity)) | 85.2 | −20.9 | 87.7 | A (C* is not less than 80 (lightness and chroma are very high)) | A (a* is not less than 80, and b* is not more than −15 (much closer to the magenta chromaticity)) | 84.8 | −20.7 | 87.2 | A (C* is not less than 80 (lightness and chroma are very high))
CCCCC(CC)CNc1ccc2c3c1C(=O)c1ccccc1-c3c(C(=O)c1ccccc1)c(=O)n2CC(CC)CCCC (centres unmarked) [Compound (8)] | A (a* is not less than 80, and b* is not more than −15 (much closer to the magenta chromaticity)) | 82.0 | −28.3 | 86.6 | A (C* is not less than 80 (lightness and chroma are very high)) | A (a* is not less than 80, and b* is not more than −15 (much closer to the magenta chromaticity)) | 82.2 | −28.5 | 86.9 | A (C* is not less than 80 (lightness and chroma are very high))
CCCCC(CC)CNc1ccc2c3c1C(=O)c1ccccc1-c3c(C(=O)c1ccc(OC)cc1)c(=O)n2CCCC (centres unmarked) [Compound (6)] | A (a* is not less than 80, and b* is not more than −15 (much closer to the magenta chromaticity)) | 87.1 | −21.0 | 89.5 | A (C* is not less than 80 (lightness and chroma are very high)) | A (a* is not less than 80, and b* is not more than −15 (much closer to the magenta chromaticity)) | 86.8 | −20.5 | 88.7 | A (C* is not less than 80 (lightness and chroma are very high))
Cn1c(=O)cc2c3c(c(Nc4ccccc4)ccc31)C(=O)c1ccccc1-2 [(1), reference compound] | C (a* is less than 60, and b* is not more than −15 (far from the magenta chromaticity)) | 40.6 | −18.0 | 44.4 | C (C* is less than 70 (lightness and chroma are low)) | – | – | – | – | –
CCCCC(CC)CNc1ccc2c3c1C(=O)c1ccccc1-c3c(C(=O)c1ccccc1)c(=O)n2C (centres unmarked) [Compound (14)] | – | – | – | – | – | A (a* is not less than 80, and b* is not more than −15 (much closer to the magenta chromaticity)) | 88.6 | −27.1 | 90.2 | A (C* is not less than 80 (lightness and chroma are very high))
CCCCOCCCNc1ccc2c3c1C(=O)c1ccccc1-c3c(C(=O)c1ccccc1)c(=O)n2CC(CC)CCCC (centres unmarked) [Compound (10)] | A (a* is not less than 80, and b* is not more than −15 (much closer to the magenta chromaticity)) | 86.4 | −22.0 | 87.8 | A (C* is not less than 80 (lightness and chroma are very high)) | A (a* is not less than 80, and b* is not more than −15 (much closer to the magenta chromaticity)) | 85.9 | −23.1 | 89.1 | A (C* is not less than 80 (lightness and chroma are very high))
CCCCC(CC)CNc1ccc2c3c1C(=O)c1ccccc1-c3c(C(=O)c1ccccc1)c(=O)n2CCCC (centres unmarked) [Compound (4)] | A (a* is not less than 80, and b* is not more than −15 (much closer to the magenta chromaticity)) | 88.8 | −27.2 | 92.2 | A (C* is not less than 80 (lightness and chroma are very high)) | A (a* is not less than 80, and b* is not more than −15 (much closer to the magenta chromaticity)) | 89.1 | −28.2 | 93.4 | A (C* is not less than 80 (lightness and chroma are very high))
CCCCNc1ccc2c3c1C(=O)c1ccccc1-c3c(C(=O)c1ccccc1)c(=O)n2CCCC [Compound (21)] | A (a* is not less than 80, and b* is not more than −15 (much closer to the magenta chromaticity)) | 82.3 | −28.1 | 87.2 | A (C* is not less than 80 (lightness and chroma are very high)) | – | – | – | – | –
Cc1ccc(Nc2ccc3c4c(cc(=O)n3C)-c3ccccc3C(=O)c24)cc1 [(2), reference compound] | C (a* is less than 60, and b* is not more than −15 (far from the magenta chromaticity)) | 38.6 | −13.0 | 40.7 | C (C* is less than 70 (lightness and chroma are low)) | C (a* is less than 60, and b* is not more than −15 (far from the magenta chromaticity)) | 36.5 | −10.6 | 38.0 | C (C* is less than 70 (lightness and chroma are low))
CCCCn1c(=O)c(C(=O)c2ccccc2)c2c3c(c(Nc4ccc(C)cc4)ccc31)C(=O)c1ccccc1-2 [(3), reference compound] | – | – | – | – | – | C (a* is less than 60, and b* is not more than −15 (far from the magenta chromaticity)) | 54.7 | −31.1 | 62.9 | C (C* is less than 70 (lightness and chroma are low))
